Assay results reported in publication PMC9010640.
Results are given in words; binding and its absence hold for the method and conditions named. Binding seen in cells or lysates may run through a third protein. Some binding calls cover weakened binding; strength is not graded here.

Protein sequences, listed by entry. Tags and fused reporters are not part of them.
UniProt P31596: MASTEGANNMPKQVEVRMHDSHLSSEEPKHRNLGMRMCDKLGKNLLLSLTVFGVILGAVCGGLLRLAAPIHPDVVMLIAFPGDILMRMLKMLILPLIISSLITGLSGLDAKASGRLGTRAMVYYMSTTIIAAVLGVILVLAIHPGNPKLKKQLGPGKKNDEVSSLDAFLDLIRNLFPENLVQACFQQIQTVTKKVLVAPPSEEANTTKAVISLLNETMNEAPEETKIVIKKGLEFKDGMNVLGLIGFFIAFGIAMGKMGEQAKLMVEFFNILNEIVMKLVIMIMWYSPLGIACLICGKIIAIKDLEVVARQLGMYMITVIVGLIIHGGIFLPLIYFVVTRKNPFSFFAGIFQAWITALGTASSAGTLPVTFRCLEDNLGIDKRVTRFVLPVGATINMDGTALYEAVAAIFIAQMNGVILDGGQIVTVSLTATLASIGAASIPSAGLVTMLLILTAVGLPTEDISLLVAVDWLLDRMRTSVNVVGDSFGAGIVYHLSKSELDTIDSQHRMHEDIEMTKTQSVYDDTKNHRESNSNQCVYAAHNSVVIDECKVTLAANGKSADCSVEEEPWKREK
UniProt Q4G017: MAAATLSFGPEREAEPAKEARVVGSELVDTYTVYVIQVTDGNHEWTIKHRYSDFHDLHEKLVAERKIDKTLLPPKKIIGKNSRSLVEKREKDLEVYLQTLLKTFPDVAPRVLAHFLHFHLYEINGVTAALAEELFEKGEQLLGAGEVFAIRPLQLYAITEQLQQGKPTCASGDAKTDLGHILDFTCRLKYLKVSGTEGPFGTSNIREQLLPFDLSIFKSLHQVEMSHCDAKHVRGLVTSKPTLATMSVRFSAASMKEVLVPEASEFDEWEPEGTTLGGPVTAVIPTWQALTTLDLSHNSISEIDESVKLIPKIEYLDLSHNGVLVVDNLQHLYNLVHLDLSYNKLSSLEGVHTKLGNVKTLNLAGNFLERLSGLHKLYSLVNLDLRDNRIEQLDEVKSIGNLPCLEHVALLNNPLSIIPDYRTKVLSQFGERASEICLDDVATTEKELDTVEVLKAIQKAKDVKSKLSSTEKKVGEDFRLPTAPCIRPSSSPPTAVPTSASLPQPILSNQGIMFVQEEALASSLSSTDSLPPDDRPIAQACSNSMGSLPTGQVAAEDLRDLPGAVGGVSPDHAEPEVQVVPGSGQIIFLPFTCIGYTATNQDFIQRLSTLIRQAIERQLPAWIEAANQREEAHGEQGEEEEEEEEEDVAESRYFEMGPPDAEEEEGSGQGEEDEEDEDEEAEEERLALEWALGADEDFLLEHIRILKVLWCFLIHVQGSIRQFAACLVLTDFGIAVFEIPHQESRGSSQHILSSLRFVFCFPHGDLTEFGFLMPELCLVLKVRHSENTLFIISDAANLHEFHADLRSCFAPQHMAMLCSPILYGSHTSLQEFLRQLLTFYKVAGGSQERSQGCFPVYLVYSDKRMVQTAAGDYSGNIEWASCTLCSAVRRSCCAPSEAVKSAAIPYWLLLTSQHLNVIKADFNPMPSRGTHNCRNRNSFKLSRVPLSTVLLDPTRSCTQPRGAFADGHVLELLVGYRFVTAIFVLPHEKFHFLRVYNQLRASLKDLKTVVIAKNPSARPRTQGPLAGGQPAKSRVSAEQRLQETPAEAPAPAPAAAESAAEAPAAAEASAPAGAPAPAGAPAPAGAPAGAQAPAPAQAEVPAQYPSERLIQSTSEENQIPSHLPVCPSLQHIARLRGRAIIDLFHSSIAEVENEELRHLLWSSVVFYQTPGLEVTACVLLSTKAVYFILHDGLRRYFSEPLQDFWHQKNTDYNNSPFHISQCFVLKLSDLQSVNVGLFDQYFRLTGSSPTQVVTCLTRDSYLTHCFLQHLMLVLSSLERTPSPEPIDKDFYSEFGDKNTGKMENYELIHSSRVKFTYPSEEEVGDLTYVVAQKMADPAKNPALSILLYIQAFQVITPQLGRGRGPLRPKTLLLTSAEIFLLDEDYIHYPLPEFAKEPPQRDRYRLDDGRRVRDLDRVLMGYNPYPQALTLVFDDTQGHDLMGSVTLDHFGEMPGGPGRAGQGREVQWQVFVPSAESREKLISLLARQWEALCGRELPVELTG

Target: GLT-1, endogenous in DIV14 hippocampal culture (rat (endogenous in hippocampal culture)) (UniProt P31596)
Assay: proximity ligation; In situ PLA in fixed DIV14 hippocampal cultures with anti-GLT and anti-Nischarin primary antibodies; single primary antibody as control; untreated or glutamate (100 uM, 1 h), which increased the puncta

binding: binds
Substance: Nischarin, endogenous in DIV14 hippocampal culture (from UniProt Q4G017 1-1502)
